Source: paper PMC12040169 (PLOS Biology, 2025)
This is one part of the list.

Test system: T1, CTL2-GFP (C. trachomatis L2/434/Bu, GFP-expressing)
T1 construct: L2/434/Bu, GFP-expressing
Parameters: species or system HeLa; Intracellular C. trachomatis growth in HeLa cells, bulk GFP fluorescence relative to DMSO
Conditions: bulk GFP, single well; 28.5 h, 10 µM; inhibitor

Compared with CN(C(=O)c1cccs1)c1ccc(Oc2ncc(C(F)(F)F)cc2Cl)cc1 [CBK161654], CCCc1ccc(N(C)C(=O)c2ccc(OC(F)(F)F)cc2)cc1 [CBK161616] is higher in “% of control remaining” value: 69.6673% for the first, 120.171% for the second.

Compared with O=C1CCC(=O)N1CCOc1nccnc1N1CCN(CCc2ccccn2)CC1 [CBK084309], COc1ccccc1-c1nccnc1OCCn1cnc2c1c(=O)n(C)c(=O)n2C [CBK106816] is lower in “% of control remaining” value: 103.31% for the first, 89.2515% for the second.

Compared with CC(C)OC(=O)CSc1nnc(-c2cnccn2)n1Cc1ccco1 [CBK267586], C=C(C)Cn1c(SCC(=O)O)nnc1-c1ccccc1 [CBK262737] is lower in “% of control remaining” value: 100.738% for the first, 100% for the second.

Going from Cc1cc(NC(=O)CSc2ccc3nnc(-c4ccccc4)n3n2)no1 [CBK287518] to Cc1cccc(-c2nnc(-c3cccc(NC(=O)COc4ccccc4)c3)o2)c1 [CBK269659], the “% of control remaining” value rises from 114.217% to 121.049%.

Compared with O=C1NC(=O)c2cc(S(=O)(=O)NCCCO)cc3cccc1c23 [CBK267602], O=C1NC2(Nc3ccccc31)C(=O)N(Cc1cccc3ccccc13)c1ccccc12 (stereo not drawn) [CBK264954] is lower in “% of control remaining” value: 97.4344% for the first, 48.7485% for the second.

Going from Cc1csc2ncc(C(=O)Nc3cc(C(F)(F)F)ccc3Cl)c(=O)n12 [CBK287465] to O=C(Nc1ccccc1[N+](=O)[O-])c1cc(S(=O)(=O)Nc2ccccn2)ccc1Cl [CBK263229], the “% of control remaining” value falls from 142.482% to 94.0101%.

Going from Cc1cc(NC(=O)Cc2ccsc2)c2ccccc2n1 [CBK116259] to O=C(Cc1c[nH]cn1)Nc1cccc2cc[nH]c12 [CBK160097], the “% of control remaining” value rises from 103.335% to 116.513%.

Compared with CC(=O)NCCC1CCN(c2nc(C(C)(C)C)nc3c2cnn3C)CC1 [CBK307364], COc1ccccc1CNCC1CCN(C(=O)OC(C)(C)C)CC1 [CBK056710] is higher in “% of control remaining” value: 129.821% for the first, 141.241% for the second.

Going from OC(CN1CCC(Oc2ccccc2F)CC1)c1cccs1 (stereo not drawn) [CBK281433] to COCCN1CC[C@@H]2[C@@H](C/C=C/Cc3ccccc3OCC(=O)N2C)C1 [CBK292134], the “% of control remaining” value falls from 119.349% to 110.831%.

First: CN1CCN(c2ccc3ccn(S(=O)(=O)c4ccc([N+](=O)[O-])cc4)c3n2)CC1 [CBK070757C]
Second: Cc1ccc(S(=O)(=O)c2cc3c(=O)n4ccccc4nc3n(CCN3CCOCC3)c2=N)cc1 [CBK265637]
The “% of control remaining” value of the first is lower: 22.0294% for the first, 117.599% for the second.

Compared with CC(=O)N[C@H]1CC[C@]2(C)CCC([C@H](C)C(=O)N3CCCCC3)[C@H](O)[C@H]2[C@@H]1C (stereo partly drawn) [CBK289439], CC1CCN(S(=O)(=O)c2ccc(C(=O)N3CCCCC3C(=O)O)cc2)CC1 (stereo not drawn) [CBK297094] is lower in “% of control remaining” value: 171.399% for the first, 130.487% for the second.

Going from Oc1cccc(/C=N/n2c(S)nnc2-c2ccncc2)c1 [CBK265300] to CCOC(=O)C1(Cc2ccccc2-c2ccncc2)CCNCC1 [CBK282297], the “% of control remaining” value rises from 116.638% to 137.627%.

Compared with CS(=O)(=O)Nc1nnc(C(F)(F)F)s1 [CBK038168], COc1ccc(S(=O)(=O)Nc2nnc(C)s2)cc1 [CBK045543] is higher in “% of control remaining” value: 109.184% for the first, 118.971% for the second.

Compared with COc1ccc(CSc2nnc(SCc3ccc(C(=O)O)cc3)s2)cc1 [CBK300477], C=CCSC1=N/C(=C\c2ccc(C(=O)O)cc2)C(=O)S1 [CBK265057] is higher in “% of control remaining” value: 108.965% for the first, 115.855% for the second.

Going from C#CCNC(=O)CC[C@H]1CNC(=O)[C@@H]2[C@@H](CCN2CC(C)(C)C)N1C [CBK289035] to CC(=O)Nc1ccc(-c2ccc(=O)n3c2[C@@H]2C[C@@H](CN(C(=O)C(C)(C)C)C2)C3)cc1 [CBK289199], the “% of control remaining” value falls from 161.577% to 106.354%.

Compared with CCOC(=O)C1CCN(C(=O)c2ccc(OC)cc2)CC1 [CBK074220], COc1ccc(-n2cnnn2)cc1 [CBK001946] is lower in “% of control remaining” value: 128.311% for the first, 122.832% for the second.

Going from O=C1CC(SCCc2nc3ccccc3[nH]2)C(=O)N1c1ccc(F)cc1 (stereo not drawn) [CBK267500] to Cc1ccc(N2C(=O)N[C@@H]3CCN(S(=O)(=O)c4ccccc4)[C@@H]3C2=O)cc1 [CBK289285], the “% of control remaining” value falls from 154.5% to 100.302%.

Going from Cc1ccc2[nH]c(/C(C#N)=C\c3cn(CC(=O)Nc4ccccc4)c4ccccc34)nc2c1 [CBK267612] to O=C(O)c1ccccc1-c1ccccc1C(=O)NCCc1ccccc1 [CBK263394], the “% of control remaining” value rises from 110.285% to 126.562%.

Compared with Cc1cc(Cl)c(S(=O)(=O)Nc2ccc3c(c2)OCCO3)cc1OCC(=O)NC1CCCCC1 [CBK266786], O=C(COc1ccc2c(c1)OCO2)NCc1ccccn1 [CBK269983] is lower in “% of control remaining” value: 146.874% for the first, 123.424% for the second.

Compared with O=C(O)C1(Oc2ccc3ncccc3c2)CCN(C2CCCCC2)CC1 [CBK306591], COc1ccc(CN2C(=S)N(CC3CCCCC3)[C@H]3[C@@H]2[C@H]2OC(=O)[C@@H]3C[C@H]2O)cc1 [CBK288936] is lower in “% of control remaining” value: 148.185% for the first, 86.0592% for the second.

First: O=C(Cn1ncc2cccn2c1=O)Nc1cccc(F)c1 [CBK283702]
Second: CCc1nc2ccc(C(=O)Nc3ccc4c(c3)OCC(=O)N4)cn2c1N(C)CC [CBK145521]
The “% of control remaining” value of the first is higher: 141.708% for the first, 110.797% for the second.

First: Cc1ccc(CN2Cc3cc4ccccc4nc3OC(C)C2=O)o1 (stereo not drawn) [CBK284004]
Second: Cc1ccncc1C(=O)N1CCc2ccccc21 [CBK200400]
The “% of control remaining” value of the first is lower: 96.6598% for the first, 111.151% for the second.

Going from Cc1cc(C(=O)O)ccc1NC(=O)CCCC(=O)O [CBK267917] to Cc1ccc(/C=C/C(=O)O)cc1S(=O)(=O)NC1CCS(=O)(=O)C1 (stereo not drawn) [CBK264409], the “% of control remaining” value rises from 129.456% to 134.911%.

Compared with CCCCN(CC(F)(F)F)C(=O)Cc1csc(NC(=O)C(C)C)n1 [CBK306217], C=CCn1c(Cc2csc(NC(=O)c3ccc(OC)cc3O)n2)n[nH]c1=S [CBK296752] is lower in “% of control remaining” value: 151.622% for the first, 131.443% for the second.

First: CCC(=O)N1c2ccc(C(O)CN3CCSCC3)cc2CC1C (stereo not drawn) [CBK283122]
Second: Cc1noc(C)c1CN1CCN(CC(CC(=O)Nc2ccc(F)cc2)C(=O)O)CC1 (stereo not drawn) [CBK286821]
The “% of control remaining” value of the first is lower: 125.62% for the first, 137.782% for the second.

First: O=C(Nc1ccccc1Cl)c1ccc(NCCN2C(=O)c3ccccc3C2=O)c([N+](=O)[O-])c1 [CBK267149]
Second: O=C(O)c1ccc(NS(=O)(=O)c2ccc(NC(=O)c3ccccc3Cl)cc2)cc1 [CBK265184]
The “% of control remaining” value of the first is higher: 163.614% for the first, 105.819% for the second.

Going from Cn1c(=O)c2c(ncn2CCOc2cnc(-c3cnn(Cc4ccccc4)c3)c(N)n2)n(C)c1=O [CBK145193] to Cc1nc2c(C(=O)N3CCNC(=O)C3)cnn2c(C)c1Cc1ccccc1 [CBK162197], the “% of control remaining” value rises from 110.864% to 121.978%.

First: CCCNc1nccnc1-c1cc(C)c(O)c(C)c1 [CBK037210]
Second: C=CCNc1nccnc1-c1ccncc1 [CBK036845]
The “% of control remaining” value of the first is higher: 170.031% for the first, 127.701% for the second.

Compared with Cn1cc(-c2nc(C3COCCN3C(=O)c3cccc(Cl)c3)no2)cn1 (stereo not drawn) [CBK305443], CN(Cc1nc(-c2ccccc2)no1)C(=O)C1CCOC1 (stereo not drawn) [CBK306755] is lower in “% of control remaining” value: 138.151% for the first, 132.24% for the second.

Compared with O=C(OCCC1SC(NC2CC3C=CC2C3)=NC1=O)c1cc(C(F)(F)F)cc(C(F)(F)F)c1 (stereo not drawn) [CBK056857T], NC1=NC(=O)C(CC(=O)Nc2ccccc2Cl)S1 (stereo not drawn) [CBK039145] is higher in “% of control remaining” value: 123.955% for the first, 124.969% for the second.

Going from NC(=O)NS(=O)(=O)c1ccc(NC(=S)NC(=O)c2ccco2)cc1 [CBK261068] to Cc1ccc2oc(-c3ccc(C)c(NC(=S)NC(=O)c4ccc([N+](=O)[O-])cc4)c3)nc2c1 [CBK263897], the “% of control remaining” value rises from 99.5869% to 139.25%.

Compared with CC(C)c1ccc(/C=C/C(=O)NC2CC2)cc1 [CBK149640], Cc1cccc(-n2c(C3CCCNC3=O)n[nH]c2=S)c1 (stereo not drawn) [CBK012842] is higher in “% of control remaining” value: 54.7098% for the first, 118.653% for the second.

First: O=C(NCCSCc1ccc(Cl)cc1Cl)c1ccc(Br)cc1 [CBK264733]
Second: COc1ccccc1CC(C)NC(=O)c1ccc2nc(C)[nH]c2c1 (stereo not drawn) [CBK283261]
The “% of control remaining” value of the first is lower: 90.3202% for the first, 108.81% for the second.

Going from Cc1c(C(C)NCC(O)COc2ccc(C#N)cc2)cnn1C (stereo not drawn) [CBK304881] to COc1ccc2c(c1)cc(C(=O)NCc1cncn1CC(C)C)n2C [CBK307193], the “% of control remaining” value falls from 153.254% to 117.175%.

First: CCC1(CC)OC(NC23CC4CC(CC(O)(C4)C2)C3)=NC1=O [CBK107938]
Second: CS(=O)(=O)NC1CCCN(Cc2nc(N)c3ccccc3n2)C1 (stereo not drawn) [CBK304889]
The “% of control remaining” value of the first is lower: 99.6617% for the first, 105.196% for the second.

First: Cc1nc(C(=O)N(CCO)Cc2ccccc2)cs1 [CBK304810]
Second: Cc1nnc(SCC2=NN(c3nc4ccccc4[nH]3)C(=O)C2)s1 [CBK293979]
The “% of control remaining” value of the first is lower: 87.0237% for the first, 120.993% for the second.

Going from COc1ccc(C(C)C)cc1-c1cn2ccnc2c(N2CCN(c3ccncc3)CC2)n1 [CBK066217] to COc1cc(CNc2ccc3[nH]c(=O)[nH]c3c2)cc(Br)c1OCC(=O)NC(C)(C)C [CBK266596], the “% of control remaining” value rises from 0% to 157.456%.

Compared with CS(=O)(=O)N/N=C/c1cccc(Br)c1 [CBK026427], COc1ccc(C2NC(C(=O)O)CS2)c(OC)c1 (stereo not drawn) [CBK260908] is lower in “% of control remaining” value: 131.482% for the first, 99.4971% for the second.

Compared with O=C(NC(=O)N1CCOCC1)c1csnn1 [CBK005561], COCCN(C(=O)c1cc2cc(C)ccc2s1)C1CCS(=O)(=O)C1 (stereo not drawn) [CBK304289] is lower in “% of control remaining” value: 119.866% for the first, 103.861% for the second.
